# Some of the results follow.
# Assays:
# Experiment in all cases: glycan array binding signal (z-score within array); higher = stronger binding
# Conditions in all cases: glycan notation: IUPAC condensed, linker removed
# [1] = target: GlcNAc(a1-6)Gal(b1-4)GlcNAc
# Outline: (§1)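 Columns mapping to the same glycan were averaged after glycan names were converted to IUPAC-condensed notation. The data come from 3228 arrays in the Consortium for Functional Glycomics database, limited to those with an available protein sequence. Binding is reported as a within-array Z-score averaged across arrays of one protein sequence and across linkers.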
# [2] = target: GlcNAc(b1-2)Gal(b1-3)GalNAc
# Outline: as §1
# [3] = target: GlcNAc(b1-2)Man(a1-3)[GlcNAc(b1-2)Man(a1-6)]Man(b1-4)GlcNAc(b1-4)GlcNAc
# Outline: as §1
# [4] = target: GlcNAc(b1-2)Man(a1-3)[GlcNAc(b1-2)Man(a1-6)]Man(b1-4)GlcNAc(b1-4)[Fuc(a1-6)]GlcNAc
# Outline: as §1
# [5] = target: GlcNAc(b1-2)Man(a1-3)[GlcNAc(b1-4)][GlcNAc(b1-2)Man(a1-6)]Man(b1-4)GlcNAc(b1-4)GlcNAc
# Outline: as §1
# [6] = target: GlcNAc(b1-2)Man(a1-3)[GlcNAc(b1-4)][GlcNAc(b1-2)Man(a1-6)]Man(b1-4)GlcNAc(b1-4)[Fuc(a1-6)]GlcNAc
# Outline: as §1
# [7] = target: GlcNAc(b1-2)[GlcNAc(b1-4)]Man(a1-3)[GlcNAc(b1-2)Man(a1-6)]Man(b1-4)GlcNAc(b1-4)GlcNAc
# Outline: as §1
# [8] = target: GlcNAc(b1-2)[GlcNAc(b1-4)]Man(a1-3)[GlcNAc(b1-4)][GlcNAc(b1-2)Man(a1-6)]Man(b1-4)GlcNAc(b1-4)GlcNAc
# Outline: as §1
# [9] = target: GlcNAc(b1-2)[GlcNAc(b1-4)]Man(a1-3)[GlcNAc(b1-4)][GlcNAc(b1-2)[GlcNAc(b1-6)]Man(a1-6)]Man(b1-4)GlcNAc(b1-4)GlcNAc
# Outline: as §1
# [10] = target: GlcNAc(b1-2)[GlcNAc(b1-4)]Man(a1-3)[GlcNAc(b1-4)][GlcNAc(b1-2)[GlcNAc(b1-6)]Man(a1-6)]Man(b1-4)GlcNAc(b1-4)[Fuc(a1-6)]GlcNAc
# Outline: as §1
# [11] = target: GlcNAc(b1-2)[GlcNAc(b1-6)]Man(a1-6)[GlcNAc(b1-2)Man(a1-3)]Man(b1-4)GlcNAc(b1-4)GlcNAc
# Outline: as §1
# [12] = target: GlcNAc(b1-2)[GlcNAc(b1-6)]Man(a1-6)[GlcNAc(b1-2)Man(a1-3)]Man(b1-4)GlcNAc(b1-4)[Fuc(a1-6)]GlcNAc
# Outline: as §1
# [13] = target: GlcNAc(b1-2)[GlcNAc(b1-6)]Man(a1-6)[GlcNAc(b1-4)][GlcNAc(b1-2)Man(a1-3)]Man(b1-4)GlcNAc(b1-4)GlcNAc
# Outline: as §1
# GlcNAc(b1-3)Fuc = target: GlcNAc(b1-3)Fuc
# Outline: as §1
# GlcNAc(b1-3)Gal = target: GlcNAc(b1-3)Gal
# Outline: as §1
# [14] = target: GlcNAc(b1-3)Gal(b1-3)GalNAc
# Outline: as §1
# GlcNAc(b1-3)Gal(b1-4)Glc = target: GlcNAc(b1-3)Gal(b1-4)Glc
# Outline: as §1
# [15] = target: GlcNAc(b1-3)Gal(b1-4)GlcNAc
# Outline: as §1
# [16] = target: GlcNAc(b1-3)Gal(b1-4)GlcNAc(b1-2)Man(a1-3)[GlcNAc(b1-3)Gal(b1-4)GlcNAc(b1-2)Man(a1-6)]Man(b1-4)GlcNAc(b1-4)GlcNAc
# Outline: as §1
# [17] = target: GlcNAc(b1-3)Gal(b1-4)GlcNAc(b1-2)Man(a1-3)[GlcNAc(b1-3)Gal(b1-4)GlcNAc(b1-2)Man(a1-6)]Man(b1-4)GlcNAc(b1-4)[Fuc(a1-6)]GlcNAc
# Outline: as §1
# [18] = target: GlcNAc(b1-3)Gal(b1-4)GlcNAc(b1-2)[GlcNAc(b1-3)Gal(b1-4)GlcNAc(b1-6)]Man(a1-6)[GlcNAc(b1-3)Gal(b1-4)GlcNAc(b1-2)Man(a1-3)]Man(b1-4)GlcNAc(b1-4)GlcNAc
# Outline: as §1
# [19] = target: GlcNAc(b1-3)Gal(b1-4)GlcNAc(b1-3)Gal(b1-4)GlcNAc
# Outline: as §1
# [20] = target: GlcNAc(b1-3)Gal(b1-4)GlcNAc(b1-3)Gal(b1-4)GlcNAc(b1-2)Man(a1-3)[GlcNAc(b1-3)Gal(b1-4)GlcNAc(b1-3)Gal(b1-4)GlcNAc(b1-2)Man(a1-6)]Man(b1-4)GlcNAc(b1-4)GlcNAc
# Outline: as §1
# [21] = target: GlcNAc(b1-3)Gal(b1-4)GlcNAc(b1-3)Gal(b1-4)GlcNAc(b1-2)Man(a1-3)[GlcNAc(b1-3)Gal(b1-4)GlcNAc(b1-3)Gal(b1-4)GlcNAc(b1-2)Man(a1-6)]Man(b1-4)GlcNAc(b1-4)[Fuc(a1-6)]GlcNAc
# Outline: as §1
# [22] = target: GlcNAc(b1-3)Gal(b1-4)GlcNAc(b1-3)Gal(b1-4)GlcNAc(b1-2)[GlcNAc(b1-3)Gal(b1-4)GlcNAc(b1-3)Gal(b1-4)GlcNAc(b1-6)]Man(a1-6)[GlcNAc(b1-3)Gal(b1-4)GlcNAc(b1-3)Gal(b1-4)GlcNAc(b1-2)Man(a1-3)]Man(b1-4)GlcNAc(b1-4)[Fuc(a1-6)]GlcNAc
# Outline: as §1
# [23] = target: GlcNAc(b1-3)Gal(b1-4)GlcNAc(b1-3)Gal(b1-4)GlcNAc(b1-3)Gal(b1-4)GlcNAc(b1-2)Man(a1-3)[GlcNAc(b1-3)Gal(b1-4)GlcNAc(b1-3)Gal(b1-4)GlcNAc(b1-3)Gal(b1-4)GlcNAc(b1-2)Man(a1-6)]Man(b1-4)GlcNAc(b1-4)GlcNAc
# Outline: as §1
# [24] = target: GlcNAc(b1-3)Gal(b1-4)GlcNAc(b1-3)Gal(b1-4)GlcNAc(b1-3)Gal(b1-4)GlcNAc(b1-2)Man(a1-3)[GlcNAc(b1-3)Gal(b1-4)GlcNAc(b1-3)Gal(b1-4)GlcNAc(b1-3)Gal(b1-4)GlcNAc(b1-2)Man(a1-6)]Man(b1-4)GlcNAc(b1-4)[Fuc(a1-6)]GlcNAc
# Outline: as §1
# [25] = target: GlcNAc(b1-3)Gal(b1-4)GlcNAc(b1-3)Gal(b1-4)GlcNAc(b1-3)Gal(b1-4)GlcNAc(b1-2)[GlcNAc(b1-3)Gal(b1-4)GlcNAc(b1-3)Gal(b1-4)GlcNAc(b1-3)Gal(b1-4)GlcNAc(b1-6)]Man(a1-6)[GlcNAc(b1-3)Gal(b1-4)GlcNAc(b1-3)Gal(b1-4)GlcNAc(b1-3)Gal(b1-4)GlcNAc(b1-2)Man(a1-3)]Man(b1-4)GlcNAc(b1-4)[Fuc(a1-6)]GlcNAc
# Outline: as §1
# [26] = target: GlcNAc(b1-3)Gal(b1-4)GlcNAc(b1-3)Gal(b1-4)GlcNAc(b1-3)Gal(b1-4)GlcNAc(b1-3)Gal(b1-4)GlcNAc(b1-2)Man(a1-3)[GlcNAc(b1-3)Gal(b1-4)GlcNAc(b1-3)Gal(b1-4)GlcNAc(b1-3)Gal(b1-4)GlcNAc(b1-3)Gal(b1-4)GlcNAc(b1-2)Man(a1-6)]Man(b1-4)GlcNAc(b1-4)GlcNAc
# Outline: as §1
# [27] = target: GlcNAc(b1-3)Gal(b1-4)GlcNAc(b1-3)Gal(b1-4)GlcNAc(b1-3)Gal(b1-4)GlcNAc(b1-3)Gal(b1-4)GlcNAc(b1-2)Man(a1-3)[GlcNAc(b1-3)Gal(b1-4)GlcNAc(b1-3)Gal(b1-4)GlcNAc(b1-3)Gal(b1-4)GlcNAc(b1-3)Gal(b1-4)GlcNAc(b1-2)Man(a1-6)]Man(b1-4)GlcNAc(b1-4)[Fuc(a1-6)]GlcNAc
# Outline: as §1
# [28] = target: GlcNAc(b1-3)Gal(b1-4)GlcNAc(b1-3)Gal(b1-4)GlcNAc(b1-3)Gal(b1-4)GlcNAc(b1-3)Gal(b1-4)GlcNAc(b1-2)[GlcNAc(b1-3)Gal(b1-4)GlcNAc(b1-3)Gal(b1-4)GlcNAc(b1-3)Gal(b1-4)GlcNAc(b1-3)Gal(b1-4)GlcNAc(b1-6)]Man(a1-6)[GlcNAc(b1-3)Gal(b1-4)GlcNAc(b1-3)Gal(b1-4)GlcNAc(b1-3)Gal(b1-4)GlcNAc(b1-3)Gal(b1-4)GlcNAc(b1-2)Man(a1-3)]Man(b1-4)GlcNAc(b1-4)[Fuc(a1-6)]GlcNAc
# Outline: as §1
# [29] = target: GlcNAc(b1-3)Gal(b1-4)GlcNAc(b1-3)Gal(b1-4)GlcNAc(b1-3)GalNAc
# Outline: as §1
# [30] = target: GlcNAc(b1-3)Gal(b1-4)GlcNAc(b1-3)GalNAc
# Outline: as §1
# [31] = target: GlcNAc(b1-3)Gal(b1-4)GlcNAc(b1-3)[GlcNAc(b1-3)Gal(b1-4)GlcNAc(b1-3)]GalNAc
# Outline: as §1
# [32] = target: GlcNAc(b1-3)Gal(b1-4)GlcNAc(b1-6)[Gal(b1-3)]GalNAc
# Outline: as §1
# [33] = target: GlcNAc(b1-3)Gal(b1-4)GlcNAc(b1-6)[GlcNAc(b1-3)Gal(b1-3)]GalNAc
# Outline: as §1
# [34] = target: GlcNAc(b1-3)Gal(b1-4)GlcNAc(b1-6)[GlcNAc(b1-3)]Gal(b1-4)GlcNAc
# Outline: as §1
# GlcNAc(b1-3)GalNAc = target: GlcNAc(b1-3)GalNAc
# Outline: as §1
# GlcNAc(b1-3)Man = target: GlcNAc(b1-3)Man
# Outline: as §1
# [35] = target: GlcNAc(b1-3)[GlcNAc(b1-4)][GlcNAc(b1-6)]GlcNAc
# Outline: as §1
# [36] = target: GlcNAc(b1-3)[GlcNAc(b1-6)]Gal(b1-4)GlcNAc
# Outline: as §1
# [37] = target: GlcNAc(b1-3)[GlcNAc(b1-6)]GalNAc
# Outline: as §1
# [38] = target: GlcNAc(b1-4)Gal(b1-4)GlcNAc
# Outline: as §1
# GlcNAc(b1-4)GlcNAc = target: GlcNAc(b1-4)GlcNAc
# Outline: as §1
# [39] = target: GlcNAc(b1-4)GlcNAc(b1-4)GlcNAc
# Outline: as §1
binder,measurement,setting,value
"Erv41-EDTA (Saccharomyces cerevisiae), Q04651 (protein) MKFLVNVALVFMVVYISYIYAAAPEHHHHHHDYDIPTTENLYFQGAMGYIDQQYVVDSQVRDTVQINMDIYVNTKCDWLQINVRDQTMDRKLVLEELQLEEMPFFIPYDTKVNDINEIITPELDEILGEAIPAEFREKLDTRSFFDESDPNKAHLPEFNGCHVFGSIPVNRVSGELQITAKSLGYVASRKAPLEELKFNHVINEFSFGDFYPYIDNPLDNTAQFNQDEPLTTYVYYTSVVPTLFKKLGAEVDTNQYSVNDYRYLYKDVAAKGDKMPGIFFKYNFEPLSIVVSDVRL",glycan array binding signal (z-score),[1],-0.931
same,glycan array binding signal (z-score),[2],0.502
same,glycan array binding signal (z-score),[3],0.019
same,glycan array binding signal (z-score),[4],0.801
same,glycan array binding signal (z-score),[5],-0.335
same,glycan array binding signal (z-score),[6],0.162
same,glycan array binding signal (z-score),[7],0.078
same,glycan array binding signal (z-score),[8],-0.352
same,glycan array binding signal (z-score),[9],-0.697
same,glycan array binding signal (z-score),[10],-0.341
same,glycan array binding signal (z-score),[11],-0.604
same,glycan array binding signal (z-score),[12],2.54
same,glycan array binding signal (z-score),[13],-0.977
same,glycan array binding signal (z-score),GlcNAc(b1-3)Fuc,0.776
same,glycan array binding signal (z-score),GlcNAc(b1-3)Gal,-0.731
same,glycan array binding signal (z-score),[14],-0.349
same,glycan array binding signal (z-score),GlcNAc(b1-3)Gal(b1-4)Glc,-0.219
same,glycan array binding signal (z-score),[15],-0.122
same,glycan array binding signal (z-score),[16],0.054
same,glycan array binding signal (z-score),[17],0.097
same,glycan array binding signal (z-score),[18],0.254
same,glycan array binding signal (z-score),[19],0.427
same,glycan array binding signal (z-score),[20],0.194
same,glycan array binding signal (z-score),[21],0.714
same,glycan array binding signal (z-score),[22],1.25
same,glycan array binding signal (z-score),[23],0.272
same,glycan array binding signal (z-score),[24],1.54
same,glycan array binding signal (z-score),[25],1.7
same,glycan array binding signal (z-score),[26],0.832
same,glycan array binding signal (z-score),[27],0.649
same,glycan array binding signal (z-score),[28],1.71
same,glycan array binding signal (z-score),[29],-0.987
same,glycan array binding signal (z-score),[30],0.434
same,glycan array binding signal (z-score),[31],-0.055
same,glycan array binding signal (z-score),[32],-0.737
same,glycan array binding signal (z-score),[33],0.568
same,glycan array binding signal (z-score),[34],-0.741
same,glycan array binding signal (z-score),GlcNAc(b1-3)GalNAc,-0.153
same,glycan array binding signal (z-score),GlcNAc(b1-3)Man,-1.05
same,glycan array binding signal (z-score),[35],-0.993
same,glycan array binding signal (z-score),[36],0.788
same,glycan array binding signal (z-score),[37],-0.717
same,glycan array binding signal (z-score),[38],-1.26
same,glycan array binding signal (z-score),GlcNAc(b1-4)GlcNAc,0.311
same,glycan array binding signal (z-score),[39],-0.16

# Part of the list above, as tab-separated lines.
binder	measurement	setting	value
Erv41-EDTA (Saccharomyces cerevisiae), Q04651 (protein) MKFLVNVALVFMVVYISYIYAAAPEHHHHHHDYDIPTTENLYFQGAMGYIDQQYVVDSQVRDTVQINMDIYVNTKCDWLQINVRDQTMDRKLVLEELQLEEMPFFIPYDTKVNDINEIITPELDEILGEAIPAEFREKLDTRSFFDESDPNKAHLPEFNGCHVFGSIPVNRVSGELQITAKSLGYVASRKAPLEELKFNHVINEFSFGDFYPYIDNPLDNTAQFNQDEPLTTYVYYTSVVPTLFKKLGAEVDTNQYSVNDYRYLYKDVAAKGDKMPGIFFKYNFEPLSIVVSDVRL	glycan array binding signal (z-score)	[2]	0.502
same	glycan array binding signal (z-score)	[15]	-0.122
same	glycan array binding signal (z-score)	GlcNAc(b1-4)GlcNAc	0.311

# Source: the supplement of paper PMC8728848
